Laboratory results taken from paper doi:10.1101/2023.12.10.570918.
Read-outs that look alike come from different tables or passages of the source. Results are given in words; binding and its absence hold for the method and conditions named. Binding seen in cells or lysates may run through a third protein. These calls come from enrichment with a bait or labelling near it, and not all partners need be listed. One block for each molecule: values may come before it.

Sequences of proteins named here, by UniProt entry; tags and fusion partners are left off.
UniProt Q92551: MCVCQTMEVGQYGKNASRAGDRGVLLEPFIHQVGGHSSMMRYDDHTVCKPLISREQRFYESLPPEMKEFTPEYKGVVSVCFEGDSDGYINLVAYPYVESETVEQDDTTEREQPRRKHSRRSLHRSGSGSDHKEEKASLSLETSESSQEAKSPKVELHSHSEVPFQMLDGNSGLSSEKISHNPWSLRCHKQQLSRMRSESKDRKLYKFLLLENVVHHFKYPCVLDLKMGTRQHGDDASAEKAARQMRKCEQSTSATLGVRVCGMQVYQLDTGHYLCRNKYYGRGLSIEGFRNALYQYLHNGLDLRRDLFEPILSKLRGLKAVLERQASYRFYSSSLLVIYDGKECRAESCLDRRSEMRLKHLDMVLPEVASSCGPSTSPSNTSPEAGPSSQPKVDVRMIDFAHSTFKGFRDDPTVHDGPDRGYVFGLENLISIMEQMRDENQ
UniProt Q14978: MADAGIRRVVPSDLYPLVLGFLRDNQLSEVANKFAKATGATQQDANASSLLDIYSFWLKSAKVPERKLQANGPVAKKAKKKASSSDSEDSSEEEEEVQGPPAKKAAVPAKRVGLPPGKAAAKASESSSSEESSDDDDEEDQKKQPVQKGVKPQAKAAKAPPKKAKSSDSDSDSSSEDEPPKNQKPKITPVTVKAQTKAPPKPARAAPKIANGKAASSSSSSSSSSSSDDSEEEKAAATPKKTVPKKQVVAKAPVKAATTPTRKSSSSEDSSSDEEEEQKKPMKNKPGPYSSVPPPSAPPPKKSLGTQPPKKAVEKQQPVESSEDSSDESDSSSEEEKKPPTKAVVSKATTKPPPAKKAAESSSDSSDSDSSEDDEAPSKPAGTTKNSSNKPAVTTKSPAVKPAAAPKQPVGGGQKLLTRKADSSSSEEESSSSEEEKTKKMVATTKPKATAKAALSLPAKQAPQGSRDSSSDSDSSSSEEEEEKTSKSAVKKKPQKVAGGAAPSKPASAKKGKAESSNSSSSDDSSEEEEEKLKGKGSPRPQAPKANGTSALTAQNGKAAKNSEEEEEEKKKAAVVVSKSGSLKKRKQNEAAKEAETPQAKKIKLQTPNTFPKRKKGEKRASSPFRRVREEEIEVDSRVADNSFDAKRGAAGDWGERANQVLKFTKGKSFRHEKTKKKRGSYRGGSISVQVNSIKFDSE
UniProt Q04637: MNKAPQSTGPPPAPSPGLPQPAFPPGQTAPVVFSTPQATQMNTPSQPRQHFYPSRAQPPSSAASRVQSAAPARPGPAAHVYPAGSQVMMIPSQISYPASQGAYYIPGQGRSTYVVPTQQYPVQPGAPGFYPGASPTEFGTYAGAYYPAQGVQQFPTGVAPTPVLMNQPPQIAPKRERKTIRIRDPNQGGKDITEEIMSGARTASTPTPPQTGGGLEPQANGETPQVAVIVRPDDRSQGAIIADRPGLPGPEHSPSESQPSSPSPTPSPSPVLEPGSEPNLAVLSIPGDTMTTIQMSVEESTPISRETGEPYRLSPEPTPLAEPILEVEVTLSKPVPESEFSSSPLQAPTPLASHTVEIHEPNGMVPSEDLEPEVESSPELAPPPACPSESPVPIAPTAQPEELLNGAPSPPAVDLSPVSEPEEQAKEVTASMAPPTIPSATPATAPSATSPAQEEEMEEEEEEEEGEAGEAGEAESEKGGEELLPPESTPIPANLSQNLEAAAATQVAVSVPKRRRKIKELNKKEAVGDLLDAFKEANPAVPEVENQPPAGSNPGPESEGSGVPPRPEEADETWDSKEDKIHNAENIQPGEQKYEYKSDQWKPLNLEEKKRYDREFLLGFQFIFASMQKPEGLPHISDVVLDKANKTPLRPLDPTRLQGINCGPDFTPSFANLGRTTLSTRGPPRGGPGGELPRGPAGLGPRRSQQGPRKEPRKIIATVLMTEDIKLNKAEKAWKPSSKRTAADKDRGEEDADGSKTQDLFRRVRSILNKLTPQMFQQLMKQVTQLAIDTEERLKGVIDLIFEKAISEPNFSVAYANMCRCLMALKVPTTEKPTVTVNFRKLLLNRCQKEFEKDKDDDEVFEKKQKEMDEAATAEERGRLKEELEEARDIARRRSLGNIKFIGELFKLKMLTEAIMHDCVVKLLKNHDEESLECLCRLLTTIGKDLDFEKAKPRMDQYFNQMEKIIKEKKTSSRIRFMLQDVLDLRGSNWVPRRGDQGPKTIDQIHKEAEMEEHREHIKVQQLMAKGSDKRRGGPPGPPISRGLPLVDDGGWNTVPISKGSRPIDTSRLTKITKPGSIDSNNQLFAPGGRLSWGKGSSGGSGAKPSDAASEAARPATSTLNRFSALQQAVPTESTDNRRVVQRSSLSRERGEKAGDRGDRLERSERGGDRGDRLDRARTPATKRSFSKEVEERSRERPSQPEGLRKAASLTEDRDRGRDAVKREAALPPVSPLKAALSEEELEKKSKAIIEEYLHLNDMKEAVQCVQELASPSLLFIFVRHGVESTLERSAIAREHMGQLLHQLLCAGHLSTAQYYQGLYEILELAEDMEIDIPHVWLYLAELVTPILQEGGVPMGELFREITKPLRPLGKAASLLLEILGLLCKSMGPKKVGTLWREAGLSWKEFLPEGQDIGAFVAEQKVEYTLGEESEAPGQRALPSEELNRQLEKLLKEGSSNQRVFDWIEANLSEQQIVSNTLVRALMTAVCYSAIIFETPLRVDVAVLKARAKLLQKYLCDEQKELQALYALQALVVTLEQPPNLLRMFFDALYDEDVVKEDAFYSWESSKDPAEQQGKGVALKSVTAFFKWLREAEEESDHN

Tests used:
SFB-tagged IP6K1 (human) [1] = target: SFB-tagged IP6K1 (human) (UniProt Q92551); test: affinity purification with mass spectrometry
SFB-tagged IP6K1 (human) [2] = target: SFB-tagged IP6K1 (human) (UniProt Q92551); test: affinity purification with mass spectrometry; remark: listed apart in the source

Molecule: endogenous NOLC1 (from UniProt Q14978 1-699)
binding (SFB-tagged IP6K1 (human) [1]): binds

B2: endogenous AP3B1 (protein, UniProt O00203 1-1094)
chain: MSSNSFPYNEQSGGGEATELGQEATSTISPSGAFGLFSSDLKKNEDLKQMLESNKDSAKLDAMKRIVGMIAKGKNASELFPAVVKNVASKNIEIKKLVYVYLVRYAEEQQDLALLSISTFQRALKDPNQLIRASALRVLSSIRVPIIVPIMMLAIKEASADLSPYVRKNAAHAIQKLYSLDPEQKEMLIEVIEKLLKDKSTLVAGSVVMAFEEVCPDRIDLIHKNYRKLCNLLVDVEEWGQVVIIHMLTRYARTQFVSPWKEGDELEDNGKNFYESDDDQKEKTDKKKKPYTMDPDHRLLIRNTKPLLQSRNAAVVMAVAQLYWHISPKSEAGIISKSLVRLLRSNREVQYIVLQNIATMSIQRKGMFEPYLKSFYVRSTDPTMIKTLKLEILTNLANEANISTLLREFQTYVKSQDKQFAAATIQTIGRCATNILEVTDTCLNGLVCLLSNRDEIVVAESVVVIKKLLQMQPAQHGEIIKHMAKLLDSITVPVARASILWLIGENCERVPKIAPDVLRKMAKSFTSEDDLVKLQILNLGAKLYLTNSKQTKLLTQYILNLGKYDQNYDIRDRTRFIRQLIVPNVKSGALSKYAKKIFLAQKPAPLLESPFKDRDHFQLGTLSHTLNIKATGYLELSNWPEVAPDPSVRNVEVIELAKEWTPAGKAKQENSAKKFYSESEEEEDSSDSSSDSESESGSESGEQGESGEEGDSNEDSSEDSSSEQDSESGRESGLENKRTAKRNSKAKGKSDSEDGEKENEKSKTSDSSNDESSSIEDSSSDSESESEPESESESRRVTKEKEKKTKQDRTPLTKDVSLLDLDDFNPVSTPVALPTPALSPSLMADLEGLHLSTSSSVISVSTPAFVPTKTHVLLHRMSGKGLAAHYFFPRQPCIFGDKMVSIQITLNNTTDRKIENIHIGEKKLPIGMKMHVFNPIDSLEPEGSITVSMGIDFCDSTQTASFQLCTKDDCFNVNIQPPVGELLLPVAMSEKDFKKEQGVLTGMNETSAVIIAAPQNFTPSVIFQKVVNVANVGAVPSGQDNIHRFAAKTVHSGSLMLVTVELKEGSTAQLIINTEKTVIGSVLLRELKPVLSQG
binding (SFB-tagged IP6K1 (human) [2]): binds

The remaining lines, values ahead:

binding (SFB-tagged IP6K1 (human) [1]): binds
Molecule: endogenous CK2 catalytic α’ subunit (CSK22) (from UniProt P19784 1-350) (enzyme)

binding (SFB-tagged IP6K1 (human) [1]): binds
Molecule: endogenous EIF4G1 (from UniProt Q04637 1-1599)

binding (SFB-tagged IP6K1 (human) [2]): binds
B1: endogenous TCOF (protein, UniProt Q13428 1-1488)
chain: MAEARKRRELLPLIYHHLLRAGYVRAAREVKEQSGQKCFLAQPVTLLDIYTHWQQTSELGRKRKAEEDAALQAKKTRVSDPISTSESSEEEEEAEAETAKATPRLASTNSSVLGADLPSSMKEKAKAETEKAGKTGNSMPHPATGKTVANLLSGKSPRKSAEPSANTTLVSETEEEGSVPAFGAAAKPGMVSAGQADSSSEDTSSSSDETDVEGKPSVKPAQVKASSVSTKESPARKAAPAPGKVGDVTPQVKGGALPPAKRAKKPEEESESSEEGSESEEEAPAGTRSQVKASEKILQVRAASAPAKGTPGKGATPAPPGKAGAVASQTKAGKPEEDSESSSEESSDSEEETPAAKALLQAKASGKTSQVGAASAPAKESPRKGAAPAPPGKTGPAVAKAQAGKREEDSQSSSEESDSEEEAPAQAKPSGKAPQVRAASAPAKESPRKGAAPAPPRKTGPAAAQVQVGKQEEDSRSSSEESDSDREALAAMNAAQVKPLGKSPQVKPASTMGMGPLGKGAGPVPPGKVGPATPSAQVGKWEEDSESSSEESSDSSDGEVPTAVAPAQEKSLGNILQAKPTSSPAKGPPQKAGPVAVQVKAEKPMDNSESSEESSDSADSEEAPAAMTAAQAKPALKIPQTKACPKKTNTTASAKVAPVRVGTQAPRKAGTATSPAGSSPAVAGGTQRPAEDSSSSEESDSEEEKTGLAVTVGQAKSVGKGLQVKAASVPVKGSLGQGTAPVLPGKTGPTVTQVKAEKQEDSESSEEESDSEEAAASPAQVKTSVKKTQAKANPAAARAPSAKGTISAPGKVVTAAAQAKQRSPSKVKPPVRNPQNSTVLARGPASVPSVGKAVATAAQAQTGPEEDSGSSEEESDSEEEAETLAQVKPSGKTHQIRAALAPAKESPRKGAAPTPPGKTGPSAAQAGKQDDSGSSSEESDSDGEAPAAVTSAQVIKPPLIFVDPNRSPAGPAATPAQAQAASTPRKARASESTARSSSSESEDEDVIPATQCLTPGIRTNVVTMPTAHPRIAPKASMAGASSSKESSRISDGKKQEGPATQVSKKNPASLPLTQAALKVLAQKASEAQPPVARTQPSSGVDSAVGTLPATSPQSTSVQAKGTNKLRKPKLPEVQQATKAPESSDDSEDSSDSSSGSEEDGEGPQGAKSAHTLGPTPSRTETLVEETAAESSEDDVVAPSQSLLSGYMTPGLTPANSQASKATPKLDSSPSVSSTLAAKDDPDGKQEAKPQQAAGMLSPKTGGKEAASGTTPQKSRKPKKGAGNPQASTLALQSNITQCLLGQPWPLNEAQVQASVVKVLTELLEQERKKVVDTTKESSRKGWESRKRKLSGDQPAARTPRSKKKKKLGAGEGGEASVSPEKTSTTSKGKAKRDKASGDVKEKKGKGSLGSQGAKDEPEEELQKGMGTVEGGDQSNPKSKKEKKKSDKRKKDKEKKEKKKKAKKASTKDSESPSQKKKKKKKKTAEQTV
